Record: PubChem BioAssay AID1259254 (NCATS, 2017)

Aim: 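Gene knock-downs that lead to re-replication, shown by excess G2 DNA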 (primary screen)
Cells: human HCT116 colorectal cancer cells
Knock-down reagent: single siRNA against human genes
Duration: 3 days
Read-out: 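Imaged Hoechst DNA stain sorts each cell into a cycle phase by DNA amount; per plate, G2 fraction set to 0% for non-targeting and 100% for GMNN siRNA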
Reading the numbers: G2 robust z-score and G2 cells, % of GMNN control: higher = more G2 cells, more excess DNA replication
Hit rule: 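An siRNA counts as active if its G2 robust z-score lies at least 5 MADs above the screen median; here such calls match roughly 38% of GMNN control or more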
Shown is a random part of about 59,000 reagents tested. About 1,550 of them (2.6%) were called active. 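G2 share is only a proxy for re-replication; each gene was hit by three separate siRNAs, and active genes were retested.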 Unmarked entries are inactive. Reagents against one gene are numbered here. Not all columns of the deposit are shown. The record does not give: the amount of reagent.

| gene knocked down | siRNA no. | G2 robust z-score | G2 cells, % of GMNN control |
| --- | --- | --- | --- |
| RGS6 (GeneID 9628) | 1 | 0.685 | 7.79 |
| RGS6 (GeneID 9628) | 2 | 3.54 | 27.8 |
| RGS6 (GeneID 9628) | 3 | 2 | 17.1 |
| NAIF1 (GeneID 203245) | 1 | 0.135 | 3.92 |
| NAIF1 (GeneID 203245) | 2 | -0.402 | 0.136 |
| NAIF1 (GeneID 203245) | 3 | -0.755 | -2.34 |
| ZNF397 (GeneID 84307) | 1 | -0.635 | -1.5 |
| ZNF397 (GeneID 84307) | 2 | -0.918 | -3.49 |
| ZNF397 (GeneID 84307) | 3 | 1.31 | 12.2 |
| BCHE (GeneID 590) | 1 | -0.0231 | 2.8 |
| BCHE (GeneID 590) | 2 | -0.566 | -1.02 |
| BCHE (GeneID 590) | 3 | 0.345 | 5.4 |
| PWP1 (GeneID 11137) | 1 | 1.83 | 15.8 |
| PWP1 (GeneID 11137) | 2 | -0.303 | 0.833 |
| PWP1 (GeneID 11137) | 3 | -0.342 | 0.561 |
| IGSF23 (GeneID 147710) | 1 | 0.486 | 6.39 |
| IGSF23 (GeneID 147710) | 2 | -0.456 | -0.243 |
| IGSF23 (GeneID 147710) | 3 | 1.43 | 13 |
| ZNF548 (GeneID 147694) | 1 | -0.108 | 2.21 |
| ZNF548 (GeneID 147694) | 2 | -0.786 | -2.56 |
| ZNF548 (GeneID 147694) | 3 | -0.112 | 2.18 |
| DEFB128 (GeneID 245939) | 1 | 1.26 | 11.8 |
| DEFB128 (GeneID 245939) | 2 | -0.734 | -2.2 |
| DEFB128 (GeneID 245939) | 3 | -0.34 | 0.573 |
| VAT1 (GeneID 10493) | 1 | 0.55 | 6.84 |
| VAT1 (GeneID 10493) | 2 | -0.748 | -2.29 |
| VAT1 (GeneID 10493) | 3 | 0.528 | 6.68 |
| PGGT1B (GeneID 5229) | 1 | 0.957 | 9.7 |
| PGGT1B (GeneID 5229) | 2 | -0.143 | 1.96 |
| PGGT1B (GeneID 5229) | 3 | -0.639 | -1.53 |
| COL10A1 (GeneID 1300) | 1 | 0.224 | 4.54 |
| COL10A1 (GeneID 1300) | 2 | 0.231 | 4.59 |
| COL10A1 (GeneID 1300) | 3 | -0.0309 | 2.75 |
| LRRC74A (GeneID 145497) | 1 | -0.176 | 1.73 |
| LRRC74A (GeneID 145497) | 2 | 1.69 | 14.8 |
| LRRC74A (GeneID 145497) | 3 | 0.39 | 5.71 |

Individual results from above:
Under “G2 robust z-score”, ZNF397 (GeneID 84307) #3 is entered as 1.31
NAIF1 (GeneID 203245) #2, G2 cells, % of GMNN control → 0.136
Result for VAT1 (GeneID 10493) #1 under “G2 cells, % of GMNN control”: 6.84
Entry of ZNF397 (GeneID 84307) #2 under “G2 robust z-score”: -0.918

Next entries follow.
| gene knocked down | siRNA no. | G2 robust z-score | G2 cells, % of GMNN control |
| --- | --- | --- | --- |
| PUS1 (GeneID 80324) | 1 | 0.765 | 8.35 |
| PUS1 (GeneID 80324) | 2 | 1.58 | 14.1 |
| PUS1 (GeneID 80324) | 3 | 0.662 | 7.63 |
| STK17B (GeneID 9262) | 1 | 0.67 | 7.68 |
| STK17B (GeneID 9262) | 2 | 0.167 | 4.14 |
| STK17B (GeneID 9262) | 3 | -0.129 | 2.06 |
| GRK4 (GeneID 2868) | 1 | -0.791 | -2.6 |
| GRK4 (GeneID 2868) | 2 | -0.743 | -2.26 |
| GRK4 (GeneID 2868) | 3 | 0.787 | 8.51 |
| EML3 (GeneID 256364) | 1 | 1.52 | 13.7 |
| EML3 (GeneID 256364) | 2 | -0.667 | -1.73 |
| EML3 (GeneID 256364) | 3 | 1.67 | 14.7 |
| OR4C11 (GeneID 219429) | 1 | 0.643 | 7.49 |
| OR4C11 (GeneID 219429) | 2 | 1.63 | 14.4 |
| OR4C11 (GeneID 219429) | 3 | 4.68 | 35.9 |
| ZNF675 (GeneID 171392) | 1 | 0.265 | 4.83 |
| ZNF675 (GeneID 171392) | 2 | -0.501 | -0.558 |
| ZNF675 (GeneID 171392) | 3 | 0.829 | 8.8 |
| FAM201A (GeneID 158228) | 1 | -0.691 | -1.9 |
| FAM201A (GeneID 158228) | 2 | 0.243 | 4.67 |
| FAM201A (GeneID 158228) | 3 | 3.77 | 29.5 |
| GNPNAT1 (GeneID 64841) | 1 | -0.107 | 2.22 |
| GNPNAT1 (GeneID 64841) | 2 | 1.15 | 11.1 |
| GNPNAT1 (GeneID 64841) | 3 | 0.478 | 6.33 |
| OR13G1 (GeneID 441933) | 1 | 1.23 | 11.6 |
| OR13G1 (GeneID 441933) | 2 | 3.78 | 29.5 |
| OR13G1 (GeneID 441933) | 3 | -0.42 | 0.00993 |
| UBQLN4 (GeneID 56893) | 1 | 0.423 | 5.95 |
| UBQLN4 (GeneID 56893) | 2 | 0.19 | 4.3 |
| UBQLN4 (GeneID 56893) | 3 | 4.48 | 34.5 |
| ATP11C (GeneID 286410) | 1 | -0.796 | -2.64 |
| ATP11C (GeneID 286410) | 2 | -1.19 | -5.38 |
| ATP11C (GeneID 286410) | 3 | 1.29 | 12 |
